The target of the experiment is FLAG-tagged mouse Cyclophilin D (CypD with a C-terminal Flag) (mouse) (UniProt Q99KR7). Briefly: co-IP; HA-tagged SIRT3, SIRT4 or SIRT5 and FLAG-tagged CypD in transfected 293T cells; mitochondria lysed by sonication in low-stringency IP buffer (0.05% NP-40, 50 mM NaCl, 0.5 mM EDTA, 50 mM Tris-HCl pH 7.4, 10 mM nicotinamide, 1 uM trichostatin A); FLAG-tagged proteins immunoprecipitated with anti-FLAG M2-agarose.

Chains of the proteins cited; added tags and fusions are not shown. Residues count along the entry.
UniProt Q99KR7, residues 30-206: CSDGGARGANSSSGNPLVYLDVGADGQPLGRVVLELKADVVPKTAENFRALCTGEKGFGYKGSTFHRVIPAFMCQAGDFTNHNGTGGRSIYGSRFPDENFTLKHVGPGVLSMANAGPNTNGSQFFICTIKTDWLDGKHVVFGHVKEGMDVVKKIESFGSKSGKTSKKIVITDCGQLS

No constants are given. Whether binding was seen depends on the method and setting. Binding seen in cells or lysates may run through a third protein. Tags and fused reporters may be left off the sequences shown.

Binding data for 1 molecule are collected here from article PMC3034180.

B1: HA-tagged SIRT4 (enzyme, UniProt Q9Y6E7 29-314)
chain: IGLFVPASPPLDPEKVKELQRFITLSKRLLVMTGAGISTESGIPDYRSEKVGLYARTDRRPIQHGDFVRSAPIRQRYWARNFVGWPQFSSHQPNPAHWALSTWEKLGKLYWLVTQNVDALHTKAGSRRLTELHGCMDRVLCLDCGEQTPRGVLQERFQVLNPTWSAEAHGLAPDGDVFLSEEQVRSFQVPTCVQCGGHLKPDVVFFGDTVNPDKVDFVHKRVKEADSLLVVGSSLQVYSGYRFILTAWEKKLPIAILNIGPTRSDDLACLKLNSRCGELLPLIDPC
As for B1, the binding result is “no binding”.
